# In article PMC5996148:
# The list shows a part of the results. For some assays here: The exact form of the protein is not confirmed.
# Assays:
# Test in all cases: protein microarray (ProtoArray v5.0), streptavidin-Alexa Fluor 647
# Conditions in all cases: 3'-biotin; 20 mM Tris (pH 7.5), 5 mM MgCl2, 100 mM KCl, 0.1% Tween-20, A/T-rich and random oligonucleotide blockers; temperature not stated; high values mean tight binding
# IDH3B (human) = system: IDH3B (human)
# IFI35 (human) = system: IFI35 (human)
# IFIH1 (human) = system: IFIH1 (human)
# IFIT3 (human) = system: IFIT3 (human)
# IFNA1 = molecular target: T1, IFNA1 (UniProt P0DY56)
# T1 sequence: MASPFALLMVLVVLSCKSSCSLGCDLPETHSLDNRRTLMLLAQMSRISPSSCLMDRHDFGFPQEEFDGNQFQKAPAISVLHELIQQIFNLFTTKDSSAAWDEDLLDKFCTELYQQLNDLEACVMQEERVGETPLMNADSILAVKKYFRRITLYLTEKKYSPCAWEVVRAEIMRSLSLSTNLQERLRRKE
# IFNA5 (human) = system: IFNA5 (human)
# IFNA8 (human) = system: IFNA8 (human)
# IFNW1 (human) = system: IFNW1 (human)
# IGHM (human) = system: IGHM (human)
# IGJ (human) = system: IGJ (human)
# IGL@ (human) = system: IGL@ (human)
# IGLV2-14 (human) = system: IGLV2-14 (human)
# IGSF1 (human) = system: IGSF1 (human)
# IL17A (human) = system: IL17A (human)
# IL18BP (human) = system: IL18BP (human)
# IL1B (human) = system: IL1B (human)
# IL1F8 (human) = system: IL1F8 (human)
# IL1RN (human) = system: IL1RN (human)
# IL22 (human) = system: IL22 (human)
# IL27 (human) = system: IL27 (human)
sequence,measurement,setting,value
GGGGACAGGGGTATGGGGAGGGG [G4-3 biotinylated (CtG)],binding signal,IDH3B (human),-0.317 z-score
same,binding signal,IFI35 (human),-0.313 z-score
same,binding signal,IFIH1 (human),-0.341 z-score
same,binding signal,IFIT3 (human),-0.342 z-score
same,binding signal,IFNA1,-0.325 z-score
same,binding signal,IFNA5 (human),-0.331 z-score
same,binding signal,IFNA8 (human),-0.322 z-score
same,binding signal,IFNW1 (human),-0.324 z-score
same,binding signal,IGHM (human),-0.327 z-score
same,binding signal,IGJ (human),-0.296 z-score
same,binding signal,IGL@ (human),-0.34 z-score
same,binding signal,IGLV2-14 (human),-0.329 z-score
same,binding signal,IGSF1 (human),-0.317 z-score
same,binding signal,IL17A (human),-0.33 z-score
same,binding signal,IL18BP (human),-0.333 z-score
same,binding signal,IL1B (human),-0.342 z-score
same,binding signal,IL1F8 (human),-0.336 z-score
same,binding signal,IL1RN (human),-0.328 z-score
same,binding signal,IL22 (human),-0.32 z-score
same,binding signal,IL27 (human),-0.314 z-score

# Looked up one by one from the entries so far:
sequence,measurement,setting,value
GGGGACAGGGGTATGGGGAGGGG [G4-3 biotinylated (CtG)],binding signal,IL27 (human),-0.314 z-score
same,binding signal,IGL@ (human),-0.34 z-score
